Reference: the supplement of paper PMC10849652
The other results are listed elsewhere or left out.

Protein sequences, listed by entry. Tags and fused reporters are not part of them. Lines headed by an entry give the natural chain unless they say otherwise; changes in a name come on top.
UniProt O43426, whole entry, looked up: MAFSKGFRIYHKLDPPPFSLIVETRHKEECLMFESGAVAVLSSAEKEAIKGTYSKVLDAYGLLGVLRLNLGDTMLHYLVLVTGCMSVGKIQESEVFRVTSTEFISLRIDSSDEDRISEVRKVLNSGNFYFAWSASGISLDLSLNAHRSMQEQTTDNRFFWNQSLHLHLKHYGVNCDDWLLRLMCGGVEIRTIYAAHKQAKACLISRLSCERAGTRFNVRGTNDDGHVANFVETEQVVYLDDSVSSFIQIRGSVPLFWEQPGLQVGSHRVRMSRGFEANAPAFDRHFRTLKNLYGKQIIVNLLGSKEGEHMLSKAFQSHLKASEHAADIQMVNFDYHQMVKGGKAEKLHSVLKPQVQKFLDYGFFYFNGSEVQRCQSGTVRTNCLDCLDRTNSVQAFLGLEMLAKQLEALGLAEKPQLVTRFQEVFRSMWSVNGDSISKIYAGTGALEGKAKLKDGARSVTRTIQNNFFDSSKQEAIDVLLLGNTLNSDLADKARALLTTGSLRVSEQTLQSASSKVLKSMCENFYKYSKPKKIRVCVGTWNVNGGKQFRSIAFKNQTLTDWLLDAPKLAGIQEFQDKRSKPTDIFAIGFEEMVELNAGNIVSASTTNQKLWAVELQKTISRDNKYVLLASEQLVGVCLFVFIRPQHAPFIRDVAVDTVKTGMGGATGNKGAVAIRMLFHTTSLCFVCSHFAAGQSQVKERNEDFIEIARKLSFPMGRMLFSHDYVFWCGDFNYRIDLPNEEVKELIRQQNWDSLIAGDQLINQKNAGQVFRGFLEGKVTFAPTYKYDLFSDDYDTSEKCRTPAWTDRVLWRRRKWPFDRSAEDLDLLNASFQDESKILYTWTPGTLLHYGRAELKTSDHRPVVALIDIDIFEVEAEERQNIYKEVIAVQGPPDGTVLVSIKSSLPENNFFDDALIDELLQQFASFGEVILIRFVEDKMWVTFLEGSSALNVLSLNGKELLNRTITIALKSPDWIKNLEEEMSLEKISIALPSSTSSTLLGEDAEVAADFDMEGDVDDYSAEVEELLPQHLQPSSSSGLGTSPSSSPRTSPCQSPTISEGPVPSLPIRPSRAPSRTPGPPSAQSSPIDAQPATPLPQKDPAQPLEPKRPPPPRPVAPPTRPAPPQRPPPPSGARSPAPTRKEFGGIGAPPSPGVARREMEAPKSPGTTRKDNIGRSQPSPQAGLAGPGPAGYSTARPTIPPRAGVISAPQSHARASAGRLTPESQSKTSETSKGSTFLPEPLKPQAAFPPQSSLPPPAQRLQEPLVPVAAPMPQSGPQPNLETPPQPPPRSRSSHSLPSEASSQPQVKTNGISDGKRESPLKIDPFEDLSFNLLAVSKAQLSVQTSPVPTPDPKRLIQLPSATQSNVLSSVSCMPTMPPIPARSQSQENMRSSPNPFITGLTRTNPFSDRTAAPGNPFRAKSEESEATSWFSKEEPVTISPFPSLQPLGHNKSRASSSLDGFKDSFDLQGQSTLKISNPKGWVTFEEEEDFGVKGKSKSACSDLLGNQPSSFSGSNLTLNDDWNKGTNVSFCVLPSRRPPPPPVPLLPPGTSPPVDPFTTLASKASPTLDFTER
UniProt Q96I99: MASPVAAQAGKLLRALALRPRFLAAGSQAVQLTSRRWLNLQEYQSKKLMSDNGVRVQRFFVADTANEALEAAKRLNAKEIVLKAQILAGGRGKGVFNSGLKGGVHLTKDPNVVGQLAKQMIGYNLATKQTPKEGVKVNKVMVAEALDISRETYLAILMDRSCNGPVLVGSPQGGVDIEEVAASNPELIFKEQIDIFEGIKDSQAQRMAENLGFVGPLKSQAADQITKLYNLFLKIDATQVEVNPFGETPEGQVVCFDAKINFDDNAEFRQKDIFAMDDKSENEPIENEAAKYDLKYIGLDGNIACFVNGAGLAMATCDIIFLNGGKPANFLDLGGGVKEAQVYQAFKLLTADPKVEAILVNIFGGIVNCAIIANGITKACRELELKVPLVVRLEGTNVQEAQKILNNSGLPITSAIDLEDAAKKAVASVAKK
UniProt Q8TCJ2: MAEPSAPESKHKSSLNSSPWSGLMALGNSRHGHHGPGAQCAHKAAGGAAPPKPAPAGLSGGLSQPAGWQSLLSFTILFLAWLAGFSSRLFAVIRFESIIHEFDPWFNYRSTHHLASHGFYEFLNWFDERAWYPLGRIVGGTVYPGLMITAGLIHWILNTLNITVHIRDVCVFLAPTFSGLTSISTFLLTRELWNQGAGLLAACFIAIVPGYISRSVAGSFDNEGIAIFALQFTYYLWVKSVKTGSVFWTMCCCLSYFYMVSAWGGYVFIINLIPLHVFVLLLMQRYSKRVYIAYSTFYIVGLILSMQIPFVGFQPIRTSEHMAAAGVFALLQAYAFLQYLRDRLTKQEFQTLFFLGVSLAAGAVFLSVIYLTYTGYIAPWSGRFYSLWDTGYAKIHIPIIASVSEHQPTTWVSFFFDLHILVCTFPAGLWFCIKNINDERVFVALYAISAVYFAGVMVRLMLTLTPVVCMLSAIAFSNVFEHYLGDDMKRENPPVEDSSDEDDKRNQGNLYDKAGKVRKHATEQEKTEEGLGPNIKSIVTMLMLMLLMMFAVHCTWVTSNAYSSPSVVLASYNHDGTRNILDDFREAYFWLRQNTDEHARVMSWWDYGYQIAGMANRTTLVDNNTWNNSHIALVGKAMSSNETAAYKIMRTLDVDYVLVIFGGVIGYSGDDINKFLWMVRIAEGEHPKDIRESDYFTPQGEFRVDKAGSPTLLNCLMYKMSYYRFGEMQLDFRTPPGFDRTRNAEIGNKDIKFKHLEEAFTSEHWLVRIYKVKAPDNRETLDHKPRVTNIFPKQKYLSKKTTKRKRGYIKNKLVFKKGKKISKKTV
UniProt Q9ULQ0: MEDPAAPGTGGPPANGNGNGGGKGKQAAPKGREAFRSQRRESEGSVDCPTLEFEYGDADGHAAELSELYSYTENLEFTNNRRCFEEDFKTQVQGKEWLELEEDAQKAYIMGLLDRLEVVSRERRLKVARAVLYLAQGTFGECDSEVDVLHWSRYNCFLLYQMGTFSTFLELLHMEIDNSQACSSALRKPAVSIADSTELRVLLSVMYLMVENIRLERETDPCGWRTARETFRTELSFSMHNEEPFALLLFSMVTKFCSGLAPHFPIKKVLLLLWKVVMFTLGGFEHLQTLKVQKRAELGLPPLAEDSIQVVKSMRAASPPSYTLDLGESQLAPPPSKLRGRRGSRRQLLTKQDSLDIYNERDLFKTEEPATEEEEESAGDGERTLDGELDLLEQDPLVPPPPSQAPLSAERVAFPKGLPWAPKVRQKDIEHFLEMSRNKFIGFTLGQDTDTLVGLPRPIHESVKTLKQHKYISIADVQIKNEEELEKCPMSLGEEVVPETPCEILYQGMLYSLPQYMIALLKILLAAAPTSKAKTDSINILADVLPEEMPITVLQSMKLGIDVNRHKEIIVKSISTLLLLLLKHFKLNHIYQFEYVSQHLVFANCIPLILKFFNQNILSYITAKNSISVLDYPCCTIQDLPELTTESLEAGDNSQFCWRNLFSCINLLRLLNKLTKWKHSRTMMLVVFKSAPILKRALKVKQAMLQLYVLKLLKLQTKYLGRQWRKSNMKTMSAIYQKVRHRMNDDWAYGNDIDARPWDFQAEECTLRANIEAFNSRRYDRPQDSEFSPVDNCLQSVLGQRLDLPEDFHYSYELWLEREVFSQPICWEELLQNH
UniProt P53597: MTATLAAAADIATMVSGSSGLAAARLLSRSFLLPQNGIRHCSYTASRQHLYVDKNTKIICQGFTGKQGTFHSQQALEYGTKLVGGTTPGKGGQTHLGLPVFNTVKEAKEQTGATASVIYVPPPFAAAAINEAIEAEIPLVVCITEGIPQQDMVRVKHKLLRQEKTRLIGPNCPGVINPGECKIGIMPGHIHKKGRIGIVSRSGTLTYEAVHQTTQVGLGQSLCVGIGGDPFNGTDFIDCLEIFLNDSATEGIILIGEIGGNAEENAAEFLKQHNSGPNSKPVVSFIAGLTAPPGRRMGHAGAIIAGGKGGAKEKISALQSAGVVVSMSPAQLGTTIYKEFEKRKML
UniProt Q9Y2Z0: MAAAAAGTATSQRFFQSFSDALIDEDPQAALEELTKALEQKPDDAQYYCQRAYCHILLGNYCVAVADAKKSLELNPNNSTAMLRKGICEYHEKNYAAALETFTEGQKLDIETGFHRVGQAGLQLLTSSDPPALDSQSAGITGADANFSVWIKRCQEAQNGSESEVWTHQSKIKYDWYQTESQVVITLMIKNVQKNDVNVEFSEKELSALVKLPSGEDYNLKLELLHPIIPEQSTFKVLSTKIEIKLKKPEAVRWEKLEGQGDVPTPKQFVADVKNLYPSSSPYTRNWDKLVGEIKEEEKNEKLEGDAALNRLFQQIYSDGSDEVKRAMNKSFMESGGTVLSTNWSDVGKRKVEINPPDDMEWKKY
UniProt B4DR80: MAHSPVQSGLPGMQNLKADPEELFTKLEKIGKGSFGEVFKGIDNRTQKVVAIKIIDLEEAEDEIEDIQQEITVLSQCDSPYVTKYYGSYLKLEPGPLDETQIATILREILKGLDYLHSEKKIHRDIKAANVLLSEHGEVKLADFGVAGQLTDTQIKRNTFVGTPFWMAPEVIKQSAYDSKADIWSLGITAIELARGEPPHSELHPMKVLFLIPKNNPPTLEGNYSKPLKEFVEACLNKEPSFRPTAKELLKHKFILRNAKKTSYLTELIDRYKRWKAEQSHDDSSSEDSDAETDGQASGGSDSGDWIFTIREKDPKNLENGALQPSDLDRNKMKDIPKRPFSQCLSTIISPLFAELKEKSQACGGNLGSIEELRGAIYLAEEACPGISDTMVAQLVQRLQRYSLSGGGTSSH
UniProt O75528: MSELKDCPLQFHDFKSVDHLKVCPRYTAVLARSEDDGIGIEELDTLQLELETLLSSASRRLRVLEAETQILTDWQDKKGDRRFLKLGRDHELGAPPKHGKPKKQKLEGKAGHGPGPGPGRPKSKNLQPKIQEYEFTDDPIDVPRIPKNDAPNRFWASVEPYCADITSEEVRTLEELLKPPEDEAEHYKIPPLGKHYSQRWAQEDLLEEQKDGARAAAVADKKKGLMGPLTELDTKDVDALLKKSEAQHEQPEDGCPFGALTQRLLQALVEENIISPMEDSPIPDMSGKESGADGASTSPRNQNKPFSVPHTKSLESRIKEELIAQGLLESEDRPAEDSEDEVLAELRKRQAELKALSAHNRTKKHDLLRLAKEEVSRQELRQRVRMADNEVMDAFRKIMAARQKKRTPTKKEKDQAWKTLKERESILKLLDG
UniProt Q9P2R7: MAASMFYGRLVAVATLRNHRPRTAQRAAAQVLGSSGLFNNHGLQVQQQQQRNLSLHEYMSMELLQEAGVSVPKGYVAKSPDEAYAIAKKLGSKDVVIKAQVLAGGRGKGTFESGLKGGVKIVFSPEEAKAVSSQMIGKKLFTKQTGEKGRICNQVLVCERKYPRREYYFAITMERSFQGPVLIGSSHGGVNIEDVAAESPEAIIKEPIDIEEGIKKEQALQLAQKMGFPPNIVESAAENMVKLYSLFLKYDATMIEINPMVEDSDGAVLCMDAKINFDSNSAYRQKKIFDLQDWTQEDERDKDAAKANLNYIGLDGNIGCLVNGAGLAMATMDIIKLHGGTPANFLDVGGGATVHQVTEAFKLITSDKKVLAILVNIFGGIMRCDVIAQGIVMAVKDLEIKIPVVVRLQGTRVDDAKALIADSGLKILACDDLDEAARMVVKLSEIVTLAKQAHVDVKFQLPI
UniProt Q8WUJ0: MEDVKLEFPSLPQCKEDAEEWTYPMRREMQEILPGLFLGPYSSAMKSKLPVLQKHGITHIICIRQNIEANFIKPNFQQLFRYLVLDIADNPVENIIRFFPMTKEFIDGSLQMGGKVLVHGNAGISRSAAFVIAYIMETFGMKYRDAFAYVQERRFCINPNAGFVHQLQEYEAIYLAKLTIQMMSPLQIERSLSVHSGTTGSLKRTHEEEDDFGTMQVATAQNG
UniProt Q9HAC7: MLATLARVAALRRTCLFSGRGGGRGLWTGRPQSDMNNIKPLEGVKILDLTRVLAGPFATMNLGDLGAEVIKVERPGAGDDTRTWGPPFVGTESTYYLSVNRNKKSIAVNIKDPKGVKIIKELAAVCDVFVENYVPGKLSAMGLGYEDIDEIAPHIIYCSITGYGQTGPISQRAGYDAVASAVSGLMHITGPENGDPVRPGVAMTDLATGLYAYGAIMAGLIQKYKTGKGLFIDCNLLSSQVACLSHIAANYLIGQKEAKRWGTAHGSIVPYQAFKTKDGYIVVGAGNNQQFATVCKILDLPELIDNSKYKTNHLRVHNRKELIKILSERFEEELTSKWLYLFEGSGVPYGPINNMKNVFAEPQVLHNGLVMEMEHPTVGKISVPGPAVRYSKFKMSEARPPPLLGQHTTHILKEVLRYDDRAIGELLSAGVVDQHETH

Tests used:
Assay in all cases: log2 fold change, soluble protein after heating vs DMSO (PISA); higher = thermal stabilisation; K562 lysate, 10 uM; active = over 0.2 and 3.5 SD of the protein, either way, in both replicates (recomputed)
[1] = compound: Cc1cn(-c2cc(NC(=O)c3ccc(C)c(Nc4nccc(-c5cccnc5)n4)c3)cc(C(F)(F)F)c2)cn1 [nilotinib]
How it was run: (§1)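 Values give the log-two fold change in thermal stability against solvent controls, from duplicates. Crude K562 extract at 1 mg/mL protein, made by dounce homogenisation in PBS pH 7.4 with 1 mM MgCl2, was treated with 10 μM compound for 30 min. After 3 min heating across 48°C-58°C, aliquots were pooled, adjusted to 0.5% NP-40 at 4°C and centrifuged at 21,000xg for 90 min. The supernatant was measured by TMTpro 16plex LC-MS/MS with channel sums equalised.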

[2] = compound: Cc1nc(Nc2n[nH]c3c2CN(C(=O)N[C@H](CN(C)C)c2ccccc2)C3(C)C)c2sccc2n1
How it was run: as §1

[3] = compound: Cc1nc(Nc2ncc(C(=O)Nc3c(C)cccc3Cl)s2)cc(N2CCN(CCO)CC2)n1 [dasatinib]
How it was run: as §1

[4] = compound: Cc1ncc(-c2ccnc(Nc3ccc(S(C)(=O)=O)cc3)n2)n1C(C)C
How it was run: as §1

[5] = compound: Cn1cc(-c2ccc3c(c2)CCN3C(=O)Cc2cccc(C(F)(F)F)c2)c2c(N)ncnc21
How it was run: as §1

[6] = compound: Cn1cc(CNCC2CCN(c3ncc(C(=O)NO)cn3)CC2)c2ccccc21 [quisinostat]
How it was run: as §1

[7] = compound: Cn1cncc1[C@@](N)(c1ccc(Cl)cc1)c1ccc2c(c1)c(-c1cccc(Cl)c1)cc(=O)n2C [tipifarnib]
How it was run: as §1

[8] = compound: NC(=O)Nc1cc(-c2cccc(F)c2)sc1C(=O)N[C@H]1CCCNC1
How it was run: as §1

[9] = compound: NC(=O)c1cnc(N[C@@H]2CCCC[C@@H]2N)nc1Nc1cccc(-n2nccn2)c1
How it was run: as §1

[10] = compound: NC1(c2ccc(-c3nc4ccn5c(=O)[nH]nc5c4cc3-c3ccccc3)cc2)CCC1
How it was run: as §1

[11] = compound: NCC(=O)Nc1ccc(-n2nc(C(F)(F)F)cc2-c2ccc3c(ccc4ccccc43)c2)cc1
How it was run: as §1

[12] = compound: O=C(CCCCCCC(=O)Nc1ccccc1)NO [vorinostat]
How it was run: as §1

[13] = compound: O=C(O)c1ccc2c(c1)nc(Nc1cccc(Cl)c1)c1ccncc12 [silmitasertib]
How it was run: as §1

[14] = compound: O=C1NC(=O)C(c2cnc3ccccn23)=C1c1cn2c3c(cc(F)cc13)CN(C(=O)N1CCCCC1)CC2
How it was run: as §1

[15] = compound: c1cn2cc(-c3ccc4cn[nH]c4c3)nc(Nc3ccc(N4CCOCC4)cc3)c2n1 [entospletinib]
How it was run: as §1

Measured: log2 fold change

SYNJ1 (UniProt O43426)
inactive: [1] 0.003 | [2] 0.069 | [3] 0.011 | [4] -0.052 | [5] -0.023 | [6] -0.007 | [7] -0.107 | [8] 0.016 | [9] 0.021 | [10] 0.006 | [11] -0.075 | [12] -0.049 | [13] 0.001 | [14] -0.025 | [15] -0.033

TAF5L (UniProt O75529)
inactive: [1] 0.033 | [2] 0.064 | [3] -0.003 | [4] 0.098 | [5] -0.09 | [6] -0.115 | [7] -0.104 | [8] -0.175 | [10] 0.093 | [11] -0.152 | [12] -0.152 | [13] -0.072 | [14] -0.021 | [15] 0.082

SUPT5H isoform 2 (UniProt O00267)
inactive: [1] 0.072 | [2] 0.035 | [3] -0.089 | [4] 0.072 | [5] 0.111 | [6] -0.042 | [7] 0.012 | [8] 0.11 | [9] -0.076 | [11] 0.008 | [14] 0.102

STX3 (UniProt Q13277)
inactive: [1] -0.035 | [2] -0.014 | [3] -0.024 | [4] 0.025 | [5] 0.029 | [6] 0.169 | [7] 0.044 | [8] -0.014 | [9] 0.004 | [10] 0.032 | [11] -0.02 | [12] 0.112 | [13] 0.01 | [14] 0.04 | [15] -0.001

SUCLG2 (UniProt Q96I99)
inactive: [1] -0.008 | [2] 0 | [3] -0.033 | [4] -0.008 | [5] 0.027 | [6] -0.019 | [7] -0.007 | [8] 0.039 | [9] -0.004 | [10] -0.016 | [11] 0.028 | [12] 0.001 | [13] -0.011 | [14] 0.012 | [15] 0.005

STT3B (UniProt Q8TCJ2)
inactive: [1] -0.003 | [2] 0.009 | [3] 0.018 | [4] -0.037 | [5] 0.033 | [6] -0.099 | [7] -0.041 | [8] 0 | [9] 0.017 | [10] -0.028 | [11] -0.056 | [12] 0.118 | [13] -0.009 | [14] -0.049 | [15] 0.01

STRIP2 (UniProt Q9ULQ0)
inactive: [1] 0.007 | [2] 0.09 | [3] -0.002 | [4] -0.046 | [5] 0.02 | [6] -0.071 | [7] -0.023 | [8] 0.011 | [9] -0.009 | [10] -0.028 | [11] 0.02 | [12] -0.185 | [13] 0.02 | [14] 0.002 | [15] -0.037

SUGP2 (UniProt Q8IX01)
inactive: [1] -0.015 | [2] -0.045 | [3] -0.115 | [4] -0.018 | [5] 0.112 | [6] -0.018 | [7] -0.058 | [8] 0.154 | [9] 0.104 | [10] 0.002 | [11] -0.001 | [12] -0.092 | [13] -0.026 | [14] 0.037 | [15] -0.088

SUCLG1 (UniProt P53597)
inactive: [1] -0.028 | [2] -0.03 | [3] -0.04 | [4] 0.072 | [5] 0.042 | [6] -0.068 | [7] 0.01 | [8] 0.041 | [9] 0.002 | [10] 0.014 | [11] 0.036 | [12] -0.123 | [13] 0.029 | [14] 0.032 | [15] 0.013

SUGT1 isoform 2 (UniProt Q9Y2Z0)
inactive: [1] -0.015 | [2] 0.025 | [3] 0.045 | [4] -0.052 | [5] -0.002 | [6] 0.167 | [7] -0.009 | [8] -0.083 | [9] 0.163 | [10] -0.048 | [11] -0.015 | [12] 0.095 | [13] -0.07 | [14] -0.022 | [15] 0.013

Quoted at random: two entries already listed.
STT3B (UniProt Q8TCJ2)
inactive: [1] -0.003 | [2] 0.009 | [3] 0.018 | [4] -0.037 | [5] 0.033 | [6] -0.099 | [7] -0.041 | [8] 0 | [9] 0.017 | [10] -0.028 | [11] -0.056 | [12] 0.118 | [13] -0.009 | [14] -0.049 | [15] 0.01

STRIP2 (UniProt Q9ULQ0)
inactive: [1] 0.007 | [2] 0.09 | [3] -0.002 | [4] -0.046 | [5] 0.02 | [6] -0.071 | [7] -0.023 | [8] 0.011 | [9] -0.009 | [10] -0.028 | [11] 0.02 | [12] -0.185 | [13] 0.02 | [14] 0.002 | [15] -0.037

Next part.

STK24 (UniProt B4DR80)
inactive: [1] 0.031 | [3] 0.092 | [4] 0.086 | [5] -0.005 | [6] -0.019 | [7] 0.007 | [8] 0.187 | [9] 0.023 | [10] -0.005 | [11] 0.023 | [12] 0.029 | [13] -0.014 | [14] -0.033 | [15] 0.001
active: [2] 0.298

TACO1 (UniProt Q9BSH4)
inactive: [1] -0.009 | [2] -0.028 | [3] -0.042 | [4] 0.005 | [5] -0.017 | [6] 0.096 | [7] -0.025 | [8] 0.002 | [9] 0.038 | [10] -0.014 | [11] 0 | [12] -0.175 | [13] -0.018 | [14] 0.05 | [15] 0.08

TADA3 (UniProt O75528)
active: [12] -0.289
inactive: [1] -0.022 | [2] -0.036 | [3] -0.014 | [4] -0.023 | [5] 0.019 | [6] -0.037 | [7] -0.035 | [8] 0.006 | [9] 0.024 | [10] -0.044 | [11] 0.018 | [13] -0.021 | [14] 0.034 | [15] 0.009

SUCLA2 (UniProt Q9P2R7)
inactive: [1] 0.013 | [2] 0.016 | [3] -0.014 | [4] 0.01 | [5] 0.006 | [6] -0.038 | [7] 0.006 | [8] 0.027 | [9] 0.052 | [10] 0.011 | [11] 0.029 | [12] -0.151 | [13] 0.028 | [14] 0.008 | [15] 0.029

STYX (UniProt Q8WUJ0)
inactive: [1] 0.043 | [2] 0.037 | [3] -0.058 | [4] 0.115 | [5] -0.004 | [6] -0.074 | [7] 0.088 | [8] 0.055 | [9] 0.01 | [10] -0.014 | [12] -0.151 | [13] 0.073 | [14] 0.124 | [15] 0.118

TAF1B (UniProt Q53T94)
inactive: [1] -0.061 | [2] -0.067 | [3] -0.174 | [4] -0.105 | [5] 0.635 | [6] -0.064 | [7] -0.103 | [8] 0.017 | [9] 0.015 | [14] -0.044 | [15] -0.026
active: [11] 0.673

SYP (UniProt P08247)
inactive: [1] 0.104 | [2] -0.084 | [3] 0.011 | [4] -0.132 | [5] -0.004 | [6] 0.056 | [7] -0.084 | [8] 0.071 | [9] 0.017 | [10] -0.066 | [11] 0.024 | [12] 0.028 | [13] 0.089 | [14] 0.116 | [15] 0.077

STIM2 isoform 2 (UniProt Q9P246)
inactive: [1] 0.036 | [2] -0.045 | [3] 0.176 | [4] -0.122 | [5] 0.032 | [6] 0.051 | [7] -0.051 | [8] -0.077 | [9] -0.07 | [10] 0.078 | [12] -0.022 | [13] -0.069 | [14] -0.064 | [15] 0.058

TAF5 (UniProt Q15542)
inactive: [3] -0.078 | [5] 0.009 | [9] -0.119 | [10] 0.049 | [11] 0.001 | [12] 0.107 | [13] -0.076

SUN2 isoform 2 (UniProt Q9UH99)
inactive: [3] -0.074 | [5] 0.348 | [6] 0.014 | [8] 0.042 | [9] 0.069 | [10] 0.06 | [11] 0.095 | [12] 0.091 | [13] 0.134 | [14] -0.059 | [15] 0.078

SUGCT isoform 3 (UniProt Q9HAC7)
inactive: [3] -0.25 | [5] 0.103 | [15] 0.139
